± gives the standard deviation of the averaged measurements. This is a selection; strong and weak results do not stand in their true shares.
Compound: Nc1ncnc2c1ncn2[C@@H]1O[C@H](COP(=O)(O)OP(=O)(O)OP(=O)(O)O)[C@@H](O)[C@H]1O [adenosine triphosphate]
Assay: NP40-soluble protein abundance relative to vehicle (solubility fold change) (ratio); higher = more soluble protein in presence of ATP
Method in brief: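 Jurkat crude lysate prepared with a Dounce homogeniser was treated at eight concentrations spanning 0.1 to 10 mM, 10 min at room temperature then 3 min at 37 °C. Solubilisation with 0.8% NP40 and benzonase and ultracentrifugation preceded TMT labelling of the supernatant for LC-MS/MS. Fold change against the detergent-processed vehicle was determined per replicate from vsn-normalised intensities, across three independent experiments.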

Protein sequences, listed by entry. Tags and fused reporters are not part of them. Lines headed by an entry give the natural chain unless they say otherwise; changes in a name come on top.
UniProt P22830: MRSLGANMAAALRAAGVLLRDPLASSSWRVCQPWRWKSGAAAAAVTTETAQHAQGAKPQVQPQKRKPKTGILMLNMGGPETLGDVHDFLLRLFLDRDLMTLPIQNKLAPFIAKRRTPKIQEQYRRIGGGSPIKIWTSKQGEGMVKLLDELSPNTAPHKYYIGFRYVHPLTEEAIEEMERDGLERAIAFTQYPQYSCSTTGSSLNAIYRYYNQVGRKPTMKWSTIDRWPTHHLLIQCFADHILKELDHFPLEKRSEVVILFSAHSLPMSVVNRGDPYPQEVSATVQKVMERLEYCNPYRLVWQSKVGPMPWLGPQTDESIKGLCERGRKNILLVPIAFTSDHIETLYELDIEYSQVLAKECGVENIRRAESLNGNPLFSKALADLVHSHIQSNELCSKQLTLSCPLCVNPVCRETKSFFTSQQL
UniProt P20963, whole entry: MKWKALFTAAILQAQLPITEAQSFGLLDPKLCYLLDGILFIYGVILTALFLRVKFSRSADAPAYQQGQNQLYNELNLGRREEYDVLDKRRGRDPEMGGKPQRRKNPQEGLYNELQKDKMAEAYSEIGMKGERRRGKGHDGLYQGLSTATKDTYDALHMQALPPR
UniProt P31150: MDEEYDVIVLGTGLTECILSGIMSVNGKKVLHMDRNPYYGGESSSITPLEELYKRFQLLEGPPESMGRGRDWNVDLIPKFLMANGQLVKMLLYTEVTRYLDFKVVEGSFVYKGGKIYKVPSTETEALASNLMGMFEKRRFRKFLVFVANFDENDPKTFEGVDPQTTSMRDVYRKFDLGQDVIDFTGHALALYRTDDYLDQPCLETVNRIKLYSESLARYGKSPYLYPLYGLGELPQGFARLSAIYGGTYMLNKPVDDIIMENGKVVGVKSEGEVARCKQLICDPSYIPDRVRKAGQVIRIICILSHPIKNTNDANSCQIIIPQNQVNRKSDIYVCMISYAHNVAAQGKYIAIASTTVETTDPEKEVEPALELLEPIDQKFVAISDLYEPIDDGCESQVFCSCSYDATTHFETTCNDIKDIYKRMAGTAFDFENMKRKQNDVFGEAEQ
UniProt P21964: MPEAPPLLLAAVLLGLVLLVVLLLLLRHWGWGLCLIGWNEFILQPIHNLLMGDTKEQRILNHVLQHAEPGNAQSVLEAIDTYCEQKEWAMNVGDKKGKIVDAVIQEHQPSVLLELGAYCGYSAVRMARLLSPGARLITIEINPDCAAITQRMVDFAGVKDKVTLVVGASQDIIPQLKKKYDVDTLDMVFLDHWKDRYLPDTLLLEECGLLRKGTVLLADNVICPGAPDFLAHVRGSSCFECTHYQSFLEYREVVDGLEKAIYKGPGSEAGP
UniProt P33240: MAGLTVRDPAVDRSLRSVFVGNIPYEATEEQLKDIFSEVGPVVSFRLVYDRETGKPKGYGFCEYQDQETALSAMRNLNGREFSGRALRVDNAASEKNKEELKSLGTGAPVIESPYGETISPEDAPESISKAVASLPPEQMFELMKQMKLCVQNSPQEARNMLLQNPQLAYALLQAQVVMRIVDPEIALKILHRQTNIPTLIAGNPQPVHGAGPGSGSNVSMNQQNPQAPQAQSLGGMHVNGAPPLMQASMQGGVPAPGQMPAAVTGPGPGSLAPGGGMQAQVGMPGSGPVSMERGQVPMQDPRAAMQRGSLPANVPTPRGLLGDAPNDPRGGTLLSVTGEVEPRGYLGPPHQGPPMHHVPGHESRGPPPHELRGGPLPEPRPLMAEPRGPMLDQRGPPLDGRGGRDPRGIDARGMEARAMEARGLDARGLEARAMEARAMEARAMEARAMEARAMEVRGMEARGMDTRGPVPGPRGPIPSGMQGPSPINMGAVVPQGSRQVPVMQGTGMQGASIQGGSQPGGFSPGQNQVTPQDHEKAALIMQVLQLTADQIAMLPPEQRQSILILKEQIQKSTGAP
UniProt P23497: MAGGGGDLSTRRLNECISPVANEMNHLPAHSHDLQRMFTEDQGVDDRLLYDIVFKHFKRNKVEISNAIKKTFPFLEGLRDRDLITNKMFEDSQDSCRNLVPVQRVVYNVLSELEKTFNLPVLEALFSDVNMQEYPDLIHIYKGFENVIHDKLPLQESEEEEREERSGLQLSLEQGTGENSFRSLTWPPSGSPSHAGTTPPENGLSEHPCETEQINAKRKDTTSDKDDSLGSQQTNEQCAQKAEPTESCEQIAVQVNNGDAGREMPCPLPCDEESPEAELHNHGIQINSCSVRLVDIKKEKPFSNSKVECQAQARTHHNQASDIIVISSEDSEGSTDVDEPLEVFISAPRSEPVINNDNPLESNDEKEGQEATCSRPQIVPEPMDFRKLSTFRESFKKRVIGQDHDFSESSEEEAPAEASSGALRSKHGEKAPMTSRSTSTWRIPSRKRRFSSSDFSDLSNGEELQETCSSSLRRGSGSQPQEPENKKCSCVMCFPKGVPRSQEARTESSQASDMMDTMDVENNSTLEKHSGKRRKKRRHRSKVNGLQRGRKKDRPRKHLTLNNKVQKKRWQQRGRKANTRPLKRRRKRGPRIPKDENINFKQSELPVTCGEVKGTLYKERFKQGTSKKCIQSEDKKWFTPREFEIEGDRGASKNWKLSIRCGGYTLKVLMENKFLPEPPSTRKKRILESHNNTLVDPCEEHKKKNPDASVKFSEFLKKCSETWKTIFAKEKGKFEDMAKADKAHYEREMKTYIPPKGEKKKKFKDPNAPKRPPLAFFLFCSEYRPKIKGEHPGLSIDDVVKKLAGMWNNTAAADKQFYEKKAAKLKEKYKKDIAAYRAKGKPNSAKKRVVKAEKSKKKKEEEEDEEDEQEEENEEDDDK
UniProt P23528, whole entry: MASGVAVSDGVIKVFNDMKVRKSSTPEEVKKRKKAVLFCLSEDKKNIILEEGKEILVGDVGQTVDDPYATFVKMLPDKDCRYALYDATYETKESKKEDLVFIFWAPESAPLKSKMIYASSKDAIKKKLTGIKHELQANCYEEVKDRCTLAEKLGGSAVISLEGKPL
UniProt P31040: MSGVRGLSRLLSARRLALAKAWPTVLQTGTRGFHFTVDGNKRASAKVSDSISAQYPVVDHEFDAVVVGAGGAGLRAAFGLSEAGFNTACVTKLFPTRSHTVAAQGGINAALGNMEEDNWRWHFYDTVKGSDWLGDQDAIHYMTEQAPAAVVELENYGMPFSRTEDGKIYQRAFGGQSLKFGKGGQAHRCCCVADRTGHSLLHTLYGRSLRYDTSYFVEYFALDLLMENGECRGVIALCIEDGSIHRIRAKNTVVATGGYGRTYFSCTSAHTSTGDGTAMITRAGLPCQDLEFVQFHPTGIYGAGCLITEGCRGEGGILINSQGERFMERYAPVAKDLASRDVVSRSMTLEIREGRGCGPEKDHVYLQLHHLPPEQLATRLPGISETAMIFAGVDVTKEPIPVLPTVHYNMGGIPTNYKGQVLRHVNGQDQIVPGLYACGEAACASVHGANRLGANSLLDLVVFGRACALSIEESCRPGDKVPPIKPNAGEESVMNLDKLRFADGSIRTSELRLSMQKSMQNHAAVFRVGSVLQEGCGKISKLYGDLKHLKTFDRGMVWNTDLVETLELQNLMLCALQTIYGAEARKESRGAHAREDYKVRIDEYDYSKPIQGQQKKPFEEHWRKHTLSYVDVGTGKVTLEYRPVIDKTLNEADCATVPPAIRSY
UniProt P27348: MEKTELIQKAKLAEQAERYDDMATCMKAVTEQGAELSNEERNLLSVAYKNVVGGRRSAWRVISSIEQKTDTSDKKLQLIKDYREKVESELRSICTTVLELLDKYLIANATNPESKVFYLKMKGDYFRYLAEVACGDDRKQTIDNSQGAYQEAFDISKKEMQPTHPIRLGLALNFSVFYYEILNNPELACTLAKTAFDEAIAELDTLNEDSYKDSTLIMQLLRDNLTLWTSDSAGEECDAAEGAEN
UniProt P29218: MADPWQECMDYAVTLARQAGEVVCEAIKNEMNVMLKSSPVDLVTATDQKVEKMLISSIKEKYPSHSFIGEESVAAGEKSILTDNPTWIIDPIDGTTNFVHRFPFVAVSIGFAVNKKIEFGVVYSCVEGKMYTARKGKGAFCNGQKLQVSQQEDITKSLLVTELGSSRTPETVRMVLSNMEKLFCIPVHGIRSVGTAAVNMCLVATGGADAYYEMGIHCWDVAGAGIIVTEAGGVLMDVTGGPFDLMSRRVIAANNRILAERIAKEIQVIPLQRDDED
UniProt P30084: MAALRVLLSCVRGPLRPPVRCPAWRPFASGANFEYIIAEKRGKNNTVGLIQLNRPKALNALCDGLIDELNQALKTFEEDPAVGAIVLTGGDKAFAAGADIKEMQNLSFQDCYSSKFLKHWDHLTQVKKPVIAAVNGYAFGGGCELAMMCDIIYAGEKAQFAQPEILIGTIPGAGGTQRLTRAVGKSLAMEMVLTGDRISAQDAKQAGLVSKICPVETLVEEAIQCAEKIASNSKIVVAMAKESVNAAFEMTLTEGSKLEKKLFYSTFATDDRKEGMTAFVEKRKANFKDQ
UniProt P19447: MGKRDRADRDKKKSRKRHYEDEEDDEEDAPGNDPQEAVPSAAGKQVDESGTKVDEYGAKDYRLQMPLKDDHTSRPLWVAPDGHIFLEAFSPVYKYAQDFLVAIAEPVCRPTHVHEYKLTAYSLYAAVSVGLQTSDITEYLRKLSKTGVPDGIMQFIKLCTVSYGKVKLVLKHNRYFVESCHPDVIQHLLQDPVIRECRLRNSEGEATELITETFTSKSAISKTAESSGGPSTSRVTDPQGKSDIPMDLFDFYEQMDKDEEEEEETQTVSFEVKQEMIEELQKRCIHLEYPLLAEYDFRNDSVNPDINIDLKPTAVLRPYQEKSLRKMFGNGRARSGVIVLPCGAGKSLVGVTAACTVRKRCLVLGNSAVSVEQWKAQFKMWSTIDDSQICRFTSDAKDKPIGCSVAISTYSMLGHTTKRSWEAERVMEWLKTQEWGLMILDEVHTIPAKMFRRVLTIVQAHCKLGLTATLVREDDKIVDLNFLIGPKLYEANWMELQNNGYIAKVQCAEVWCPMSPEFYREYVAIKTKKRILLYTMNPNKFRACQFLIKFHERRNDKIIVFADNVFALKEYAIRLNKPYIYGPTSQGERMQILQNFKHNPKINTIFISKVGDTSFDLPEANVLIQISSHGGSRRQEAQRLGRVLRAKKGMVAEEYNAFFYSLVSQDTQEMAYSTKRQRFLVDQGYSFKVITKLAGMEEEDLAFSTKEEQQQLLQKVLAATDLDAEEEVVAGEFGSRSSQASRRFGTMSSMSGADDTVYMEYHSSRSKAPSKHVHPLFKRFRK
UniProt P16930: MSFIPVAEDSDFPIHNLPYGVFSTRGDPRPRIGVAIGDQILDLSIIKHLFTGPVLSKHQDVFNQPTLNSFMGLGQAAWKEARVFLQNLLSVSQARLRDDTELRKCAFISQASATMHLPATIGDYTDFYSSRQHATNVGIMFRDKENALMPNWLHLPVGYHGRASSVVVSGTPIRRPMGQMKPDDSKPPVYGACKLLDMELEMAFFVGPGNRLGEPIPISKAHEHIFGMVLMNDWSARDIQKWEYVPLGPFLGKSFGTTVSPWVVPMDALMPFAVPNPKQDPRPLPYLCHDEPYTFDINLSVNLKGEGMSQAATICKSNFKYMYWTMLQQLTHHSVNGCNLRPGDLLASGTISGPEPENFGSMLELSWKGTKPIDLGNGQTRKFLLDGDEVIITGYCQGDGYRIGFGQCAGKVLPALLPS
UniProt P25789: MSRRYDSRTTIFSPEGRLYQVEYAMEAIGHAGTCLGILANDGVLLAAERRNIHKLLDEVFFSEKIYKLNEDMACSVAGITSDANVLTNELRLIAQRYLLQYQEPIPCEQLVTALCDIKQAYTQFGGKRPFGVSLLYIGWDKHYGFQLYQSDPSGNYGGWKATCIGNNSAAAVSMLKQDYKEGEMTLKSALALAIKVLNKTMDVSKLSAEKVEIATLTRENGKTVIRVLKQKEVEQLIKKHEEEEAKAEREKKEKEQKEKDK
UniProt P23443: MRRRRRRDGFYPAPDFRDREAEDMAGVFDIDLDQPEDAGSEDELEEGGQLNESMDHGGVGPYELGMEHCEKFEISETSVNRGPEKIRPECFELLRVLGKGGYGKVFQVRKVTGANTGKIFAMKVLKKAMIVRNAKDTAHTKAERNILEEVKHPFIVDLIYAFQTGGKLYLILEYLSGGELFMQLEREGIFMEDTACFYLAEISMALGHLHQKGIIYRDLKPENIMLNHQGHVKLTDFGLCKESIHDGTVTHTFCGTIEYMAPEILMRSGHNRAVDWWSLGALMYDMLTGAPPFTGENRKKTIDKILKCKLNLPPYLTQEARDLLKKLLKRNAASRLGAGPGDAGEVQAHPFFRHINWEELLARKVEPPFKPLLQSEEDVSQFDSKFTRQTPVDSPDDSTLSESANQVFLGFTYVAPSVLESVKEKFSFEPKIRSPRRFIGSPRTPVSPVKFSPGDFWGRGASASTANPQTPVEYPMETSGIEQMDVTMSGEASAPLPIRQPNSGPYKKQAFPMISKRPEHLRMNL

Row | Target | NP40-soluble protein abundance (concentration: 1mM) | NP40-soluble protein abundance (concentration: 2mM) | NP40-soluble protein abundance (concentration: 4mM) | NP40-soluble protein abundance (concentration: 6mM) | NP40-soluble protein abundance (concentration: 8mM) | NP40-soluble protein abundance (concentration: 10mM)
1 | UniProt P22830 and related entries | 1.06 ± 0.051 | 1.01 ± 0.06 | 1.01 ± 0.066 | 0.968 ± 0.087 | 1.01 ± 0.064 | 0.993 ± 0.053
2 | BCKDHB (UniProt P21953) | 1.09 ± 0.092 | 1.1 ± 0.092 | 1.06 ± 0.035 | 1.04 ± 0.077 | 1.1 ± 0.088 | 1.06 ± 0.074
3 | UniProt P28702 and related entries | 0.915 ± 0.012 | 0.976 ± 0.048 | 0.992 ± 0.043 | 0.995 ± 0.04 | 0.944 ± 0.049 | 0.9378 ± 0.0066
4 | UniProt P20963 and related entries | 0.975 ± 0.079 | 0.95 ± 0.05 | 0.956 ± 0.013 | 0.961 ± 0.036 | 0.981 ± 0.032 | 0.884 ± 0.11
5 | GDI1 (UniProt P31150) | 1.02 ± 0.089 | 1.02 ± 0.081 | 1.01 ± 0.06 | 0.98 ± 0.11 | 1.01 ± 0.077 | 1 ± 0.064
6 | UniProt P21964 and related entries | 1 ± 0.017 | 0.981 ± 0.027 | 0.938 ± 0.04 | 0.964 ± 0.062 | 0.953 ± 0.054 | 0.937 ± 0.027
7 | UniProt P33241 and related entries | 0.944 ± 0.14 | 1.02 ± 0.1 | 1.05 ± 0.11 | 1.1 ± 0.13 | 1.07 ± 0.056 | 1.08 ± 0.069
8 | UniProt P33240 and related entries | 0.963 ± 0.057 | 0.964 ± 0.022 | 0.97 ± 0.05 | 0.981 ± 0.033 | 0.97 ± 0.031 | 0.976 ± 0.01
9 | UniProt P16989 and related entries | 0.932 ± 0.037 | 0.944 ± 0.019 | 0.908 ± 0.019 | 0.955 ± 0.054 | 0.878 ± 0.029 | 0.854 ± 0.025
10 | ELK1 (UniProt P19419) | 0.945 ± 0.075 | 0.953 ± 0.1 | 0.949 ± 0.12 | 1 ± 0.15 | 0.953 ± 0.08 | 0.959 ± 0.085
11 | UniProt P30048 and related entries | 0.961 ± 0.056 | 0.998 ± 0.029 | 0.927 ± 0.018 | 0.957 ± 0.034 | 0.959 ± 0.053 | 0.935 ± 0.03
12 | UniProt P23497 and related entries | 0.981 ± 0.069 | 0.97 ± 0.054 | 0.981 ± 0.047 | 0.971 ± 0.056 | 0.939 ± 0.043 | 0.931 ± 0.04
13 | CFL1 (UniProt P23528) | 0.931 ± 0.21 | 0.996 ± 0.12 | 0.903 ± 0.037 | 0.869 ± 0.14 | 0.898 ± 0.03 | 0.83 ± 0.049
14 | SDHA (UniProt P31040) | 1.02 ± 0.054 | 0.994 ± 0.059 | 0.973 ± 0.052 | 0.976 ± 0.085 | 0.993 ± 0.041 | 0.97 ± 0.041
15 | YWHAQ (UniProt P27348) | 0.952 ± 0.093 | 0.922 ± 0.045 | 0.92 ± 0.025 | 0.922 ± 0.067 | 0.906 ± 0.011 | 0.818 ± 0.07
16 | UniProt P29218 and related entries | 0.992 ± 0.02 | 0.995 ± 0.036 | 0.962 ± 0.042 | 0.979 ± 0.041 | 0.959 ± 0.023 | 0.947 ± 0.037
17 | ERCC2 (UniProt P18074) | 1.02 ± 0.1 | 1.03 ± 0.087 | 1.08 ± 0.053 | 1.02 ± 0.087 | 1.1 ± 0.056 | 1.09 ± 0.019
18 | ECHS1 (UniProt P30084) | 0.987 ± 0.021 | 0.984 ± 0.019 | 0.935 ± 0.032 | 1.02 ± 0.016 | 0.94 ± 0.029 | 0.937 ± 0.027
19 | UniProt P35580 and related entries | 1.06 ± 0.064 | 1.05 ± 0.048 | 1.02 ± 0.044 | 1.07 ± 0.068 | 1 ± 0.033 | 1.01 ± 0.028
20 | ERCC3 (UniProt P19447) | 1.04 ± 0.071 | 1.07 ± 0.032 | 1.13 ± 0.065 | 1.11 ± 0.06 | 1.19 ± 0.025 | 1.17 ± 0.021
21 | FAH (UniProt P16930) | 0.974 ± 0.097 | 0.939 ± 0.068 | 0.93 ± 0.085 | 0.91 ± 0.11 | 0.95 ± 0.062 | 0.913 ± 0.054
22 | PSMA4 (UniProt P25789) | 0.782 ± 0.21 | 1.05 ± 0.29 | 0.936 ± 0.21 | 0.751 ± 0.24 | 0.95 ± 0.1 | 0.765 ± 0.23
23 | UniProt P23443 and related entries | 0.989 ± 0.085 | 1.01 ± 0.086 | 0.981 ± 0.032 | 0.94 ± 0.12 | 0.99 ± 0.029 | 1.02 ± 0.054

Some of the entries so far, as labelled records:
UniProt P16989 and related entries
  NP40-soluble protein abundance (concentration: 1mM): 0.932 ± 0.037; NP40-soluble protein abundance (concentration: 2mM): 0.944 ± 0.019; NP40-soluble protein abundance (concentration: 4mM): 0.908 ± 0.019; NP40-soluble protein abundance (concentration: 6mM): 0.955 ± 0.054; NP40-soluble protein abundance (concentration: 8mM): 0.878 ± 0.029; NP40-soluble protein abundance (concentration: 10mM): 0.854 ± 0.025
ELK1 (UniProt P19419)
  NP40-soluble protein abundance (concentration: 1mM): 0.945 ± 0.075; NP40-soluble protein abundance (concentration: 2mM): 0.953 ± 0.1; NP40-soluble protein abundance (concentration: 4mM): 0.949 ± 0.12; NP40-soluble protein abundance (concentration: 6mM): 1 ± 0.15; NP40-soluble protein abundance (concentration: 8mM): 0.953 ± 0.08; NP40-soluble protein abundance (concentration: 10mM): 0.959 ± 0.085

Source: the supplement of paper PMC6411743
